No constants are given. Whether binding was seen depends on the method and setting. In cells and extracts the contact can be indirect. Some results given as binding are weak or reduced against the parent protein; the word gives no strength. For some assays here: Tags and fused reporters may be left off the sequences shown. Each block holds one molecule with its values, some of them ahead of it.
Columns and labels:
ZNF24-FLAG = ZNF24-FLAG (UniProt P17028); experiment: co-IP; PARP1-Myc and PINX1/UTP14A/ZNF24-FLAG co-transfected into HEK293T; IP of whole cell lysates with anti-FLAG agarose beads; Triton X-100 lysis buffer with 1 μM Olaparib and 1 μM PARGi, 4 °C; for PINX1 also after DMSO or 1 µM Olaparib for 40 min, then 50 µM MNNG for 15 min or 2 mM H2O2 for 5 min
UTP14A-FLAG = biological target: T1, UTP14A-FLAG (UniProt Q9BVJ6); experiment: as above
T1 sequence: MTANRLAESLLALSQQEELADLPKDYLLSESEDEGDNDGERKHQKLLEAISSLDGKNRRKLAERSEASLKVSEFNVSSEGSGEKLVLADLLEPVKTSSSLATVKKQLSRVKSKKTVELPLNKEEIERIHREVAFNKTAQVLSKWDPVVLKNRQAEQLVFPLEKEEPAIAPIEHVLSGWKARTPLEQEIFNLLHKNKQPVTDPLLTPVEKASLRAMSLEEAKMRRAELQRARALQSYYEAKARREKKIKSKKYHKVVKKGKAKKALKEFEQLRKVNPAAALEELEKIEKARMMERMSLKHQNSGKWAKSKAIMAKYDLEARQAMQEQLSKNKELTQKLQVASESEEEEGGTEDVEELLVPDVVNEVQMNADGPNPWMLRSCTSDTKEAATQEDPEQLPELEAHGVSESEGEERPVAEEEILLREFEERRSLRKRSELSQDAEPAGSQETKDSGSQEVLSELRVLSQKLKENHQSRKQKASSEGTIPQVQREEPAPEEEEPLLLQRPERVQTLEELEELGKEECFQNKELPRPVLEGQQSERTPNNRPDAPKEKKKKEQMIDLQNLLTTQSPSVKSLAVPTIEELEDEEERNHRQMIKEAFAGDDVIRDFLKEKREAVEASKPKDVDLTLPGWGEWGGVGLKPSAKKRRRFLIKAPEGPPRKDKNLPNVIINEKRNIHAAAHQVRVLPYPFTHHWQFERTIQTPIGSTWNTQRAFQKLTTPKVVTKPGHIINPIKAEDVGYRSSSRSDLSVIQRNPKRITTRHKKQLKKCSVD

Sequences of proteins named here, by UniProt entry; tags and fusion partners are left off.
UniProt P17028: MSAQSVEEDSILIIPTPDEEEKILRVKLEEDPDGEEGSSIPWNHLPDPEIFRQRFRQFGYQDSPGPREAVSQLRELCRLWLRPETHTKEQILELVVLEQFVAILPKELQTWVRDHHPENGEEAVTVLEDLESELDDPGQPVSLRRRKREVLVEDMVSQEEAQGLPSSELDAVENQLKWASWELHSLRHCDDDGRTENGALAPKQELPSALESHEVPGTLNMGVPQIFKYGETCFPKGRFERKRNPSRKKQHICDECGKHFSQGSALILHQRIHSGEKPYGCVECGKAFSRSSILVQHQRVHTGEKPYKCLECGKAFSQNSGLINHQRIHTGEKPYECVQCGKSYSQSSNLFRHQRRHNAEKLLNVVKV
UniProt P09874: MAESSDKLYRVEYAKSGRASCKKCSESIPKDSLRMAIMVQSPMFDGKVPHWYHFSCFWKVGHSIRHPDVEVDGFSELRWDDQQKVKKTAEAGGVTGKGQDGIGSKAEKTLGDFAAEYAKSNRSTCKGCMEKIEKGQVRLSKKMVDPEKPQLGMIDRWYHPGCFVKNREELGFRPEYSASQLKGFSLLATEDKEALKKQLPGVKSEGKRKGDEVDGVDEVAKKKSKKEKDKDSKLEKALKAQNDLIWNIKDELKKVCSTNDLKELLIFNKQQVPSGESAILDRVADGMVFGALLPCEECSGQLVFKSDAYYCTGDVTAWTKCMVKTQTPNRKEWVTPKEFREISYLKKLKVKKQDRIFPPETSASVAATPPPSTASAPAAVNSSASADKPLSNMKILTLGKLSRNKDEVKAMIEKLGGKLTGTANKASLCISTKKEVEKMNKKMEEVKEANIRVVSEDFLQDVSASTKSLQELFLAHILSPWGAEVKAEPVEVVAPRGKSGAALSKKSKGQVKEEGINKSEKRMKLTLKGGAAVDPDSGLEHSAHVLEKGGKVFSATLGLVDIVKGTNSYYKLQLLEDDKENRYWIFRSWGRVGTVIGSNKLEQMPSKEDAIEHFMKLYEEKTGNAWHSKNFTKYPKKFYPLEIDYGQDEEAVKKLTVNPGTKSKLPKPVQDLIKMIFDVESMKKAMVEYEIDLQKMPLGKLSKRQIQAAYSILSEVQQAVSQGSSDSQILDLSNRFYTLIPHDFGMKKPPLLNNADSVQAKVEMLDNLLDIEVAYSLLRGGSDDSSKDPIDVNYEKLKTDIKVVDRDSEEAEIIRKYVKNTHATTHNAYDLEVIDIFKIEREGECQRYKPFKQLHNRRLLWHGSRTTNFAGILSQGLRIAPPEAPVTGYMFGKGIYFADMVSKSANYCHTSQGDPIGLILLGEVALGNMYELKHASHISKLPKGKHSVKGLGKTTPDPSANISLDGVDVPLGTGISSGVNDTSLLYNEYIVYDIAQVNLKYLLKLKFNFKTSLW

[1] = biological target: T2, PINX1-FLAG (PIN2/TRF1-interacting telomerase inhibitor 1) (UniProt Q96BK5); experiment: as above
T2 sequence: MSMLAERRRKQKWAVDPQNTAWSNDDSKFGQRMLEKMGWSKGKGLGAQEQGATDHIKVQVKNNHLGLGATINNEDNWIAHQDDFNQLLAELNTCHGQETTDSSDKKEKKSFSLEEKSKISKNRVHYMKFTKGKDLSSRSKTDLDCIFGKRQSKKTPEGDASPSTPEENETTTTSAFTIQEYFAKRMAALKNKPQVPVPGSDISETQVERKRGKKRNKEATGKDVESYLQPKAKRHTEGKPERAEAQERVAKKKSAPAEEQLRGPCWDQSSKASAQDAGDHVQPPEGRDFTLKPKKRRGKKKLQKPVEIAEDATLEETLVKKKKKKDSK

Myc-tagged PARP1 [2] = biological target: Myc-tagged PARP1 (UniProt P09874); experiment: co-IP; reciprocal: PARP1-Myc and PINX1/UTP14A/ZNF24-FLAG co-transfected into HEK293T; IP of whole cell lysates with anti-Myc agarose beads
Myc-tagged PARP1 [3] = biological target: Myc-tagged PARP1 (UniProt P09874); experiment: co-IP; truncated versions of PINX1 with PARP1 (Supplementary Fig. 3D); cells, tags and beads not given
[4] = biological target: endogenous PARP1 (human (endogenous in the cells used, line not stated; all cell lines of the paper are human)) (UniProt P09874); experiment: co-IP; endogenous proteins; IP with corresponding antibodies and protein A/G beads (Supplementary Fig. 3A); which protein was precipitated is not given

binding (ZNF24-FLAG): binds
binding (UTP14A-FLAG): binds
binding [1]: binds
Molecule: Myc-tagged PARP1 (from UniProt P09874 1-1014)

binding (Myc-tagged PARP1 [2]): binds
Molecule: ZNF24-FLAG (from UniProt P17028 1-368)

binding (Myc-tagged PARP1 [3]): binds
B1: C-terminal TID domain-truncated PINX1 (PINX1[1–253aa]) (domain or fragment, UniProt Q96BK5 1-253)
chain: MSMLAERRRKQKWAVDPQNTAWSNDDSKFGQRMLEKMGWSKGKGLGAQEQGATDHIKVQVKNNHLGLGATINNEDNWIAHQDDFNQLLAELNTCHGQETTDSSDKKEKKSFSLEEKSKISKNRVHYMKFTKGKDLSSRSKTDLDCIFGKRQSKKTPEGDASPSTPEENETTTTSAFTIQEYFAKRMAALKNKPQVPVPGSDISETQVERKRGKKRNKEATGKDVESYLQPKAKRHTEGKPERAEAQERVAKKK

binding (Myc-tagged PARP1 [2]): binds
B2: UTP14A-FLAG (protein, UniProt Q9BVJ6 1-771)
chain: T1 sequence

binding [4]: binds
B3: endogenous PINX1 (protein, UniProt Q96BK5 1-328)
chain: T2 sequence

binding (Myc-tagged PARP1 [2]): binds
B4: PINX1-FLAG (PIN2/TRF1-interacting telomerase inhibitor 1) (protein, UniProt Q96BK5 1-328)
chain: T2 sequence
